doi:10.1101/2022.04.27.489727
Results are given in words; binding and its absence hold for the method and conditions named. Binding seen in cells or lysates may run through a third protein. A yes stands for co-enrichment or nearness to the bait. Other partners may have been found.

Amino acid sequences for entries named in this document (tags omitted).
UniProt P49106: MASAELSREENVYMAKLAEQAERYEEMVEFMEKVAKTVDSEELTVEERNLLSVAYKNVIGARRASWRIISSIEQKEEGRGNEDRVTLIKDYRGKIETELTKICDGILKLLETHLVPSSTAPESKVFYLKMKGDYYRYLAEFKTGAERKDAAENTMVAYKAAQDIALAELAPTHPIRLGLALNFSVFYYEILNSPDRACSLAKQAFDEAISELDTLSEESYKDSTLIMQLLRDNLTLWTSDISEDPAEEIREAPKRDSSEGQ

Biological target: GF14-6:GFP (maize) (UniProt P49106)
Assay: affinity purification with mass spectrometry

B1: Phosphoenolpyruvate carboxylase 1 (PEP1) (protein, UniProt P04711 1-970)
chain: MASTKAPGPGEKHHSIDAQLRQLVPGKVSEDDKLIEYDALLVDRFLNILQDLHGPSLREFVQECYEVSADYEGKGDTTKLGELGAKLTGLAPADAILVASSILHMLNLANLAEEVQIAHRRRNSKLKKGGFADEGSATTESDIEETLKRLVSEVGKSPEEVFEALKNQTVDLVFTAHPTQSARRSLLQKNARIRNCLTQLNAKDITDDDKQELDEALQREIQAAFRTDEIRRAQPTPQAEMRYGMSYIHETVWKGVPKFLRRVDTALKNIGINERLPYNVSLIRFSSWMGGDRDGNPRVTPEVTRDVCLLARMMAANLYIDQIEELMFELSMWRCNDELRVRAEELHSSSGSKVTKYYIEFWKQIPPNEPYRVILGHVRDKLYNTRERARHLLASGVSEISAESSFTSIEEFLEPLELCYKSLCDCGDKAIADGSLLDLLRQVFTFGLSLVKLDIRQESERHTDVIDAITTHLGIGSYREWPEDKRQEWLLSELRGKRPLLPPDLPQTDEIADVIGAFHVLAELPPDSFGPYIISMATAPSDVLAVELLQRECGVRQPLPVVPLFERLADLQSAPASVERLFSVDWYMDRIKGKQQVMVGYSDSGKDAGRLSAAWQLYRAQEEMAQVAKRYGVKLTLFHGRGGTVGRGGGPTHLAILSQPPDTINGSIRVTVQGEVIEFCFGEEHLCFQTLQRFTAATLEHGMHPPVSPKPEWRKLMDEMAVVATEEYRSVVVKEARFVEYFRSATPETEYGRMNIGSRPAKRRPGGGITTLRAIPWIFSWTQTRFHLPVWLGVGAAFKFAIDKDVRNFQVLKEMYNEWPFFRVTLDLLEMVFAKGDPGIAGLYDELLVAEELKPFGKQLRDKYVETQQLLLQIAGHKDILEGDPFLKQGLVLRNPYITTLNVFQAYTLKRIRDPNFKVTPQPPLSKEFADENKPAGLVKLNPASEYPPGLEDTLILTMKGIAAGMQNTG
  binding: binds
